Reference: PMC7690829
No constants are given. Whether binding was seen depends on the method and setting. In cells and extracts the contact can be indirect. Some entries that bind do so weakly or less than the wild type. Where a sequence is shown, tags or fusion partners need not be part of it.

The chains behind the UniProt entries cited, without tags or fusion partners.
UniProt Q9GZV5: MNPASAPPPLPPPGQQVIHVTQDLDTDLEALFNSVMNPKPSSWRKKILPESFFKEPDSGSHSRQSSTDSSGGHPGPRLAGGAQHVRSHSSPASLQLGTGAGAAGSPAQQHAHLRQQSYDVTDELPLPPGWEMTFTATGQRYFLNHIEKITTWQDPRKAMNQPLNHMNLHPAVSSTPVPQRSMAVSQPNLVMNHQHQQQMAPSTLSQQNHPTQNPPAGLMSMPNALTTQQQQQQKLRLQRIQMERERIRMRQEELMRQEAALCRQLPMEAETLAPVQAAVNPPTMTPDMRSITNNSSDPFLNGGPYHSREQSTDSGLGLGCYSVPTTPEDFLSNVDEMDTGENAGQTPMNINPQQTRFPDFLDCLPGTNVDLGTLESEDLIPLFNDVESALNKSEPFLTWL

Columns and labels:
[1] = molecular target: T1, HA-USP1 (ubiquitin specific peptidase 1) (UniProt O94782); assay: co-IP; Flag-TAZ and HA-USP1 co-transfected in HEK293T; 500 ug lysate in IP buffer (25 mM Tris-HCl, 150 mM NaCl, 1% NP-40, 5% glycerol, pH 7.4) incubated with Flag or HA beads overnight at 4 °C; immunoblot
T1 sequence: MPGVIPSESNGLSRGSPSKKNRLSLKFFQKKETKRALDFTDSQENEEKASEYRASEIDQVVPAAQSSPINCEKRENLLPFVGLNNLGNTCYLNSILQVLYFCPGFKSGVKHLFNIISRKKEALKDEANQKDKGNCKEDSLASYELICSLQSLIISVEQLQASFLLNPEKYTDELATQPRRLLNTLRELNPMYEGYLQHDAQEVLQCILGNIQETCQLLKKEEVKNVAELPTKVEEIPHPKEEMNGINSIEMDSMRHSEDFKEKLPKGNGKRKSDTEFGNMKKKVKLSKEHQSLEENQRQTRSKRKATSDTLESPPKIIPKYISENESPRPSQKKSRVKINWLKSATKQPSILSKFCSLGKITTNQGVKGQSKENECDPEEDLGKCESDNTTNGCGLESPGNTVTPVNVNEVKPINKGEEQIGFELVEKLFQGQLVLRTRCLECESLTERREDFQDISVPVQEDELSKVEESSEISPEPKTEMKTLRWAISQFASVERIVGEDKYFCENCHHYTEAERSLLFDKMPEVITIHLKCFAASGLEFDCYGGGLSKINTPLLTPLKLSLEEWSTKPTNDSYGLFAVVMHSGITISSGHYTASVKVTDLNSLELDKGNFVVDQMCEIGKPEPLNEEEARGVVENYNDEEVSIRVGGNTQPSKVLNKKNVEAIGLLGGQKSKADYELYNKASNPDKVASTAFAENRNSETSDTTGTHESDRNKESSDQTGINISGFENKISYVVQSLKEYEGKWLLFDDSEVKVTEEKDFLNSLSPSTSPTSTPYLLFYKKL

[2] = molecular target: T1, HA-USP1 (ubiquitin specific peptidase 1); assay: co-IP; exogenous TAZ or exogenous USP1 precipitated, endogenous USP1 or TAZ detected by immunoblot; IP buffer (25 mM Tris-HCl, 150 mM NaCl, 1% NP-40, 5% glycerol, pH 7.4), beads overnight at 4 °C

Flag-TAZ (Transcriptional co-activator with PDZ-binding motif) (from UniProt Q9GZV5 1-400)
binding [1]: binds

endogenous TAZ (from UniProt Q9GZV5 1-400)
binding [2]: binds
